Source: patent US20170043031A1 (PIERRE FABRE MEDICAMENT, priority 2014, published 2017)

Assay: general procedure: solution-phase peptide synthesis; DEPC/DIEA; HATU/DIEA
Settings: trifluoroacetic acid; for conjugation yield: conjugation step
[1] = late stage modification step, 210 nm

Substance | conjugation yield [%] | step yield (coupling step) [%] | also measured
methyl ((2R,3R)-3-((S)-1-((3R,4S,5S)-4-((S)-2-((S)-2-((4-((((4-((S)-2-((S)-2-(6-(2,5-dioxo-2,5-dihydro-1H-pyrrol-1-yl)hexanamido)-3-methylbutanamido)-5-ureidopentanamido)benzyl)oxy)carbonyl)(methyl)amino)phenethyl)(methyl) amino)-3-methylbutanamido)-N,3-dimethylbutanamido)-3-methoxy-5-methylheptanoyl)pyrrolidin-2-yl)-3-methoxy-2-methylpropanoyl)-L-phenylalaninate 2,2,2-trifluoroacetate | 70 |  | 
methyl (S)-2-((2R,3R)-3-((S)-1-((3R,4S,5S)-4-((S)—N,3-dimethyl-2-((S)-3-methyl-2-(methyl(4-(methylamino)phenethyl)amino)butanamido)butanamido)-3-methoxy-5-methylheptanoyl)pyrrolidin-2-yl)-3-methoxy-2-methylpropanamido)-3-phenylpropanoate, trifluoroacetic acid |  | 7 | final HPLC purity (coupling step, 254 nm): 90.6%
(S)—N-((3R,4S,5S)-3-methoxy-1-((S)-2-((1R,2R)-1-methoxy-2-methyl-3-oxo-3-(((S)-2-phenyl-1-(thiazol-2-yl)ethyl)amino)propyl)pyrrolidin-1-yl)-5-methyl-1-oxoheptan-4-yl)-N,3-dimethyl-2-((S)-3-methyl-2-(methyl(4-(methylamino)phenethyl)amino) butanamido)butanam |  |  | final HPLC purity (late stage modification step, 254 nm): 93.68%; step yield (late stage modification step): 39%
tert-butyl (3-((3S,6S,9S,10R)-9-((S)-sec-butyl)-3,6-diisopropyl-10-(2-((S)-2-((1R,2R)-1-methoxy-2-methyl-3-oxo-3-(((S)-2-phenyl-1-(thiazol-2-yl)ethyl)amino)propyl)pyrrolidin-1-yl)-2-oxoethyl)-2,8-dimethyl-4,7-dioxo-11-oxa-2,5,8-triazadodecyl)phenyl) carbamate |  | 67 | 
methyl (S)-2-((2R,3R)-3-((S)-1-((3R,4S,5S)-4-((S)-2-((((9H-fluoren-9-yl)methoxy)carbonyl)amino)-N,3-dimethylbutanamido)-3-methoxy-5-methylheptanoyl)pyrrolidin-2-yl)-3-methoxy-2-methylpropanamido)-3-phenylpropanoate |  | 34 | 
9H-fluoren-9-ylmethyl N-[(1S)-1-[[(3R,4S,5S)-3-methoxy-1-[(2S)-2-[(1R,2R)-1-methoxy-2-methyl-2-[[(1S)-2-phenyl-1-(1,3-thiazol-2-yl)ethyl]carbamoyl]ethyl]pyrrolidin-1-yl]-5-methyl-1-oxoheptan-4-yl](methyl) carbamoyl]-2-methylpropyl]carbamate |  | 71 | 
(S)-2-((S)-2-((3-aminobenzyl)(methyl)amino)-3-methylbutanamido)-N-((3R,4S,5S)-3-methoxy-1-((S)-2-((1R,2R)-1-methoxy-2-methyl-3-oxo-3-(((S)-2-phenyl-1-(thiazol-2-yl)ethyl)amino)propyl)pyrrolidin-1-yl)-5-methyl-1-oxoheptan-4-yl)-N,3-dimethylbutanamide, trifluoro |  |  | final HPLC purity [1]: 95.6%; step yield (late stage modification step): 10%
methyl ((2R,3R)-3-((S)-1-((3R,4S,55)-4-((S)-2-((S)-2-((3-(6-(2,5-dioxo-2,5-dihydro-1H-pyrrol-1-yl)hexanamido)benzyl)(methyl)amino)-3-methylbutanamido)-N,3-dimethylbutanamido)-3-methoxy-5-methylheptanoyl)pyrrolidin-2-yl)-3-methoxy-2-methylpropanoyl)-L-phenylalaninate 2,2,2-trifluoroacetate | 50 |  | 
((2R,3R)-3-((S)-1-((3R,4S,5S)-4-((S)-2-((S)-2-((4-((((4-((S)-2-((S)-2-(6-(2,5-dioxo-2,5-dihydro-1H-pyrrol-1-yl)hexanamido)-3-methylbutanamido)-5-ureidopentanamido)benzyl)oxy)carbonyl)(methyl)amino)phenethyl)(methyl)amino)-3-methylbutanamido)-N,3-dimethylbutanamido)-3-methoxy-5-methylheptanoyl) pyrrolidin-2-yl)-3-methoxy-2-methylpropanoyl)-L-phenylalanine, 2,2,2-trifluoroacetate | 35 |  | 
(S)-2-((S)-2-(((2-aminopyridin-4-yl)methyl)(methyl)amino)-3-methylbutanamido)-N-((3R,4S,5S)-1-((S)-2-((1R,2R)-3-(((1 S,2R)-1-hydroxy-1-phenylpropan-2-yl)amino)-1-methoxy-2-methyl-3-oxopropyl)pyrrolidin-1-yl)-3-methoxy-5-methyl-1-oxoheptan-4-yl)-N,3-dimethylbutanamide, trifluoroacetic acid |  |  | final HPLC purity [1]: 99.2%; step yield (late stage modification step): 6%
((2R,3R)-3-((S)-1-((3R,4S,5S)-4-((S)-2-((S)-2-((4-((S)-2-((S)-2-(6-(2,5-dioxo-2,5-dihydro-1H-pyrrol-1-yl)hexanamido)-3-methylbutanamido)-5-ureidopentanamido)phenethyl)(methyl)amino)-3-methylbutanamido)-N,3-dimethylbutanamido)-3-methoxy-5-methylheptanoyl)pyrrolidin-2-yl)-3-methoxy-2-methylpropanoyl)-L-phenylalanine 2,2,2-trifluoroacetate | 36 |  | 
N—((S)-1-(((S)-1-((4-((3R,4S,7S,1S)-4-((S)-sec-butyl)-7,10-diisopropyl-3-(2-((S)-2-((1R,2R)-1-methoxy-2-methyl-3-oxo-3-(((S)-2-phenyl-1-(thiazol-2-yl)ethyl)amino)propyl)pyrrolidin-1-yl)-2-oxoethyl)-5,11-dimethyl-6,9-dioxo-2-oxa-5,8,11-triazatridecan-13-yl)phenyl)amino)-1-oxo-5-ureidopentan-2-yl)amino)-3-methyl-1-oxobutan-2-yl)-6-(2,5-dioxo-2,5-dihydro-1H-pyrrol-1-yl)hexanamide 2,2,2-trifluoroacetate | 70 |  | 
